Laboratory results as given in patent US20200031873A1, “REPURPOSING CELL PENETRATING PEPTIDES AND THEIR NOVEL DERIVATIVES AND IOPROMIDE AND IODO-ARYL CARBONATES FOR TREATMENT OF SENESCENCE-RELATED DISEASES AND DISORDERS” (Eternans Limited, priority 2018, published 2020).
“Also recorded” adds a separate entry of the source. At least one peptide structure holds a part that was inferred or is arguable (an end, a ring closure or a residue). Where a SMILES comes first, the peptide text is derived from it.

Legend:
[1] = test system: senescent and non-senescent WI-38 fibroblasts; assay type: cell-based, human; settings: senescent WI-38 cells
Description: WI-38 cells (ATCC # CCL-75, a diploid primary human fibroblast adherent cell line derived from fetal lung tissue) were treated with a chemotherapy agent, 100 nM Doxorubicin twice every other day to induce senescence. […] Later these cells were used for experiments comparing them to their non-Doxorubicin (non-senescent) treated counterparts. Senescent and non-senescent WI-38 fibroblasts were plated for XTT viability assays. 7000 senescent (obtained as described above) and 2000 non-senescent WI-38 fibroblasts were plated in 96-well plates incubated. The cells were treated with mock (PBS) or the Senolytic Peptide (SEQ ID NO: 11) at total doses ranging from 0 to 100 μM. The mock and peptide treatments were carried out for 3 consecutive days (24, 48 and 72 hours) after plating. After treatment period, the cells were incubated for 7 days until XTT-based viability was analyzed according to the manufacturer's instructions. […] The Senolytic Peptide (SEQ ID NO: 2) was ordered from Chinese Peptide Company with TFA removal.

[2] = test system: senescent and non-senescent IMR90 fibroblasts; test: XTT viability assay, doxorubicin-induced senescent vs non-senescent IMR90 fibroblasts; assay type: cell-based, human

N=C(N)NCCC[C@H](NC(=O)[C@H](CCCNC(=N)N)NC(=O)[C@H](CCCNC(=N)N)NC(=O)[C@H](CCC(N)=O)NC(=O)[C@H](CCCNC(=N)N)NC(=O)[C@H](CCCNC(=N)N)NC(=O)[C@H](CCCCN)NC(=O)[C@H](CCCCN)NC(=O)[C@H](CCCNC(=N)N)NC(=O)CNC(=O)[C@H](Cc1ccc(O)cc1)NC(=O)[C@H](CCCNC(=N)N)NC(=O)[C@H](CCCNC(=N)N)NC(=O)[C@H](CCCNC(=N)N)NC(=O)[C@H](CCC(N)=O)NC(=O)[C@H](CCCNC(=N)N)NC(=O)[C@H](CCCNC(=N)N)NC(=O)[C@H](CCCCN)NC(=O)[C@H](CCCCN)NC(=O)[C@H](CCCNC(=N)N)NC(=O)CNC(=O)[C@H](Cc1ccc(O)cc1)NC(=O)[C@H](CCCNC(=N)N)NC(=O)[C@H](CCCNC(=N)N)NC(=O)[C@H](CCCNC(=N)N)NC(=O)[C@H](CCC(N)=O)NC(=O)[C@H](CCCNC(=N)N)NC(=O)[C@H](CCCNC(=N)N)NC(=O)[C@H](CCCCN)NC(=O)[C@H](CCCCN)NC(=O)[C@H](CCCNC(=N)N)NC(=O)CNC(=O)[C@@H](N)Cc1ccc(O)cc1)C(=O)O [ID 2] (H-YGRKKRRQRRRYGRKKRRQRRRYGRKKRRQRRR-OH; N-terminus and C-terminus assumed)
senolytic effect compared with FoxO4-DRI (viability curves) [1]: superior to FoxO4-DRI | viability of senescent vs non-senescent cells (XTT) ([2]; IMR90, total doses 0 to 100 NM on 3 consecutive days, read after 7 days, listed as SEQ ID NO: 2): selective decrease in the viability of senescent cells but not non-senescent cells; also recorded: selectively decreased the viability of senescent cells but not non-senescent cells | senolytic effect compared with FoxO4-DRI (viability curves) ([2]; senescent IMR90 cells): superior to FoxO4-DRI
